These are yes or no findings as the source states them, for the method shown. For part of these data: In cells and extracts the contact can be indirect. Some entries that bind do so weakly or less than the wild type. For part of these data: Tags and fused reporters may be left off the sequences shown.

Amino acid sequences for entries named in this document (tags omitted).
UniProt Q8BGW1: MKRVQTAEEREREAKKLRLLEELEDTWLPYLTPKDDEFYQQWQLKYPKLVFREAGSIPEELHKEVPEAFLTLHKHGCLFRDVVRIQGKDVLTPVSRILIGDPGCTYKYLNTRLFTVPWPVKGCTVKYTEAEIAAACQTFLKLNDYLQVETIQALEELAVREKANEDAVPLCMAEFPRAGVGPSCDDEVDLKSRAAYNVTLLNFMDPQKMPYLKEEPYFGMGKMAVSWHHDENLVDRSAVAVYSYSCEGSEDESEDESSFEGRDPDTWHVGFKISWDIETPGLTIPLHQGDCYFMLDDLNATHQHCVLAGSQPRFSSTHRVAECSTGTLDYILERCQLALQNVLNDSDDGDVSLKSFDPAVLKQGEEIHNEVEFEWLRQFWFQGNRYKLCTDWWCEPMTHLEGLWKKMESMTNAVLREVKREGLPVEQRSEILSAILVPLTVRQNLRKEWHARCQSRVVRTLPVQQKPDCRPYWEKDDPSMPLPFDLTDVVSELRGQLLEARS

Test [1] addresses endogenous Fto (mouse embryonic fibroblasts) (mouse (endogenous in MEFs)) (UniProt Q8BGW1). Kind of test: co-IP; endogenous proteins in MEFs from wild type mice (Fto null MEFs as negative control), grown for 24 h; immunoprecipitation with antibodies against FTO or TRIP4, western blot. For orientation: Immunoblotting shows a protein as a band on a membrane.
The target of a further test is FLAG tagged FTO (UniProt Q9C0B1). In words: co-IP; HEK293 cells transiently transfected with vector alone or Flag-FTO, harvested after 48 h; Flag immunoprecipitation of cell extracts, elution with glycine buffer (pH 3.0) at 4 °C for 30 min, western blot.
For test [2], the target named is FTO full length, fusion to the GAL4 DNA-binding domain (pGBKT7-FTO) (human) (UniProt Q9C0B1). Kind of test: two-hybrid; Matchmaker Gold Yeast Two-Hybrid System (Clontech), mating assay; FTO on GAL4 DNA-BD (pGBKT7), TRIP4 on GAL4 AD (pGADT7); four reporters (AUR1-C, ADE2, HIS3, MEL1), five-point grading by growth on selective medium; reverse orientation also assayed for a selection, comparable results.

B1: endogenous Trip4 (mouse embryonic fibroblasts) (protein, UniProt Q9QXN3 1-581)
chain: MAVAGAAYREPLVHWCTQQLQKTFALDVSEEIIQYVLSIENAEEIREYVTDLLQGNEGKKGQFIEDLITKWQKNDQEFISDSFQQCLRKDEILDGQRSVDQLKRSRRKGRNKQEVPAFPEPDVAVEVKTPLDLAKAQESNNSVKKKTRFVNLYTREGQDKLAVLLPGRHPCDCLGQKHKLINNCLVCGRIVCEQEGSGPCLFCGSLVCTNEEQDILQRDSNKSQKLLKKLMSGAETSGKVDVSTKDLLPHQESRMKSGLEKAIKHKEKLLEFDRTSIRRTQVIDDESDYFASDSNQWLSKVEREMLQKREEELRELRHASRLSKKVTIDFAGRKILEDENPLAEYHSRLDETIQAIASGTLNQSLVTLDRSCEEPLGVLVNPNMYQASPQWVDNTGSTPQKKTSLSAGPRLEPSLHQHQLRIQDQEFQEGFDGGWCLSMHQPWASLLVRGIKRVEGRSWYTPHRGRLWIAATGKRPSPQEVSELQATYRLLRGKDVEFPNDYPSGCLLGCVDLIDCLSQKQFQEQFPDISQESDSSFVFICKNPQEMVVKFPIKGNPKIWKLDSKIHQGAKKGLMKQNKAV
For the molecule B1, the binding entry in test [1] was “binds”.

B2: Thyroid receptor interacting protein 4 (TRIP4), in HEK293 cell extract (protein, UniProt Q15650 1-581)
chain: MAVAGAVSGEPLVHWCTQQLRKTFGLDVSEEIIQYVLSIESAEEIREYVTDLLQGNEGKKGQFIEELITKWQKNDQELISDPLQQCFKKDEILDGQKSGDHLKRGRKKGRNRQEVPAFTEPDTTAEVKTPFDLAKAQENSNSVKKKTKFVNLYTREGQDRLAVLLPGRHPCDCLGQKHKLINNCLICGRIVCEQEGSGPCLFCGTLVCTHEEQDILQRDSNKSQKLLKKLMSGVENSGKVDISTKDLLPHQELRIKSGLEKAIKHKDKLLEFDRTSIRRTQVIDDESDYFASDSNQWLSKLERETLQKREEELRELRHASRLSKKVTIDFAGRKILEEENSLAEYHSRLDETIQAIANGTLNQPLTKLDRSSEEPLGVLVNPNMYQSPPQWVDHTGAASQKKAFRSSGFGLEFNSFQHQLRIQDQEFQEGFDGGWCLSVHQPWASLLVRGIKRVEGRSWYTPHRGRLWIAATAKKPSPQEVSELQATYRLLRGKDVEFPNDYPSGCLLGCVDLIDCLSQKQFKEQFPDISQESDSPFVFICKNPQEMVVKFPIKGNPKIWKLDSKIHQGAKKGLMKQNKAV
As to B2, in the test with FLAG tagged FTO, the binding entry is reported as “binds”.

B3: TRIP4 full length, fusion to the GAL4 activation domain (pGADT7-TRIP4) (protein, UniProt Q15650 1-581)
chain: B2 chain
Turning to B3, the binding result in test [2] was “binds”.

Values taken from publication PMC4354923.
